Results deposited as PubChem BioAssay AID743121 (NCATS, 2013).
Assay: 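Knock-downs that sensitise breast cancer cells to camptothecin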 (primary screen). Cell system: MDA-MB-231 cells, a human breast cancer line. Reagent: single siRNA against human genes, 20 nM siRNA (0.8 pmol per well). Timing: 120 h (drug added 48 h after transfection, read 72 h later). Challenge: camptothecin 20 nM (about EC30) for 72 h; vehicle 0.1% DMSO in parallel plates. Read-out: 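Cell viability by ATP luminescence (CellTiter-Glo) as % of non-targeting siRNA wells, and the log2 ratio of viability without drug over viability with camptothecin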. Direction: log2 vehicle/camptothecin viability: higher = stronger sensitisation to camptothecin; viability with camptothecin: higher = more viable cells. Units: viability with camptothecin in % of control. Call rule: 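Each gene scored by redundant siRNA activity (RSA) over its individual siRNA ratios; a gene is called active at p < 0.001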.
In all, the deposit lists about 26,000 reagents; this is an unselected part. In the full data, 167 (0.63%) are marked active. 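Calls are per gene from RSA p-values that are not deposited; an individual active-marked siRNA can sensitise only weakly.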 The numbers tell different reagents against one gene apart. Not all columns of the deposit are shown.

After knock-down of LTK #1, the screen gave log2 vehicle/camptothecin viability -0.258; viability with camptothecin 72.6; inactive.
With knock-down of LTK #2 the results were log2 vehicle/camptothecin viability -0.157; viability with camptothecin 90; inactive.
After knock-down of LTK #3, the record shows log2 vehicle/camptothecin viability -0.411; viability with camptothecin 64; inactive.
Knock-down of LTK #4 gave: log2 vehicle/camptothecin viability -0.0329; viability with camptothecin 43.2; inactive.
FBXO46 #1 scored log2 vehicle/camptothecin viability -0.409; viability with camptothecin 81.8; inactive.
FBXO46 #2 scored log2 vehicle/camptothecin viability -0.0168; viability with camptothecin 37; inactive.
With knock-down of FBXO46 #3, the screen gave log2 vehicle/camptothecin viability -0.102; viability with camptothecin 95.1; inactive.
FBXO46 #4 showed log2 vehicle/camptothecin viability -0.0631; viability with camptothecin 72.2; inactive.
Against EPHA10 #1 the deposit lists log2 vehicle/camptothecin viability 0.0418; viability with camptothecin 92.2; inactive.
For EPHA10 #2, the values are log2 vehicle/camptothecin viability -0.544; viability with camptothecin 62.9; inactive.
EPHA10 #3 showed log2 vehicle/camptothecin viability -0.219; viability with camptothecin 105; inactive.
Silencing of EPHA10 #4 resulted in: log2 vehicle/camptothecin viability -0.295; viability with camptothecin 106; inactive.
EPHA10 #5 scored log2 vehicle/camptothecin viability 0.176; viability with camptothecin 55.2; inactive.
Silencing of EPHA10 #6 gave: log2 vehicle/camptothecin viability 0.412; viability with camptothecin 67.2; inactive.
EPHA10 #7 gave log2 vehicle/camptothecin viability -0.026; viability with camptothecin 43.5; inactive.
EPHA10 #8 scored log2 vehicle/camptothecin viability 0.208; viability with camptothecin 86.6; inactive.
F2R #1 showed log2 vehicle/camptothecin viability -0.123; viability with camptothecin 116; inactive.
F2R #2 scored log2 vehicle/camptothecin viability 0.0827; viability with camptothecin 57.8; inactive.
Against F2R #3, the entry reads log2 vehicle/camptothecin viability -0.31; viability with camptothecin 97.2; inactive.
With knock-down of F2R #4, the record shows log2 vehicle/camptothecin viability 0.214; viability with camptothecin 36; inactive.
CDK14 #1 scored log2 vehicle/camptothecin viability 0.0692; viability with camptothecin 52.5; inactive.
Knock-down of CDK14 #2 resulted in: log2 vehicle/camptothecin viability 0.0632; viability with camptothecin 32.7; inactive.
For CDK14 #3, the values are log2 vehicle/camptothecin viability -0.293; viability with camptothecin 125; inactive.
After knock-down of CDK14 #4 the results were log2 vehicle/camptothecin viability -0.116; viability with camptothecin 93.3; inactive.

6 entries from above, showing only “viability with camptothecin”.
F2R #2: 57.8
F2R #3: 97.2
F2R #4: 36
CDK14 #1: 52.5
CDK14 #2: 32.7
CDK14 #3: 125

Further records:
RPS27AP5 #1 gave log2 vehicle/camptothecin viability -0.0471; viability with camptothecin 109; inactive.
After knock-down of RPS27AP5 #2, the screen gave log2 vehicle/camptothecin viability -0.563; viability with camptothecin 51.9; inactive.
RPS27AP5 #3 showed log2 vehicle/camptothecin viability -0.357; viability with camptothecin 42.1; inactive.
After knock-down of EGFL6 #1, the screen gave log2 vehicle/camptothecin viability -0.644; viability with camptothecin 74.4; inactive.
With knock-down of EGFL6 #2, the screen gave log2 vehicle/camptothecin viability 0.611; viability with camptothecin 35.7; inactive.
EGFL6 #3 showed log2 vehicle/camptothecin viability -0.205; viability with camptothecin 101; inactive.
EGFL6 #4 gave log2 vehicle/camptothecin viability 0.0872; viability with camptothecin 96.3; inactive.
For TFE3 #1, the entry reads log2 vehicle/camptothecin viability -0.151; viability with camptothecin 102; inactive.
With knock-down of TFE3 #2, the screen gave log2 vehicle/camptothecin viability 0.109; viability with camptothecin 36.6; inactive.
With knock-down of TFE3 #3, the screen gave log2 vehicle/camptothecin viability -0.202; viability with camptothecin 99.3; inactive.
Depletion of TFE3 #4 came out at: log2 vehicle/camptothecin viability -0.0276; viability with camptothecin 105; inactive.
Against ZIC1 #1, the values are log2 vehicle/camptothecin viability 0.00117; viability with camptothecin 95.5; inactive.
Silencing of ZIC1 #2 came out at: log2 vehicle/camptothecin viability -0.405; viability with camptothecin 96.7; inactive.
ZIC1 #3 gave log2 vehicle/camptothecin viability 0.00224; viability with camptothecin 110; inactive.
For PSMA1 #1, the values are log2 vehicle/camptothecin viability -0.178; viability with camptothecin 14.4; inactive.
PSMA1 #2 gave log2 vehicle/camptothecin viability 0.696; viability with camptothecin 4.06; inactive.
With knock-down of PSMA1 #3, the screen gave log2 vehicle/camptothecin viability -0.0973; viability with camptothecin 13; inactive.
With knock-down of PSMA1 #4 the results were log2 vehicle/camptothecin viability 0.287; viability with camptothecin 10; inactive.
With knock-down of GPR156 #1, the screen gave log2 vehicle/camptothecin viability -0.595; viability with camptothecin 66.8; inactive.
Silencing of GPR156 #2 gave: log2 vehicle/camptothecin viability -0.286; viability with camptothecin 93.2; inactive.
GPR156 #3 gave log2 vehicle/camptothecin viability -0.448; viability with camptothecin 89.3; inactive.
GPR156 #4 showed log2 vehicle/camptothecin viability -0.241; viability with camptothecin 80.5; inactive.
